In PMC4869255 one finds binding data, which are given here for one molecule.

This test addresses hPRLR-ICD_(G236–H598), intracellular domain of the human prolactin receptor (human) (UniProt P16471). Kind of test: NMR, 1H-15N-HSQC spectra at two concentrations; 15N-hPRLR-ICD_(G236–H598) at 400 μM and 20 μM, 5 °C, 20 mM Na2HPO4/NaH2PO4 pH 7.3, 8 mM TCEP; chemical shifts compared; both purified.

Results are given in words; binding and its absence hold for the method and conditions named.

B1: hPRLR-ICD_(G236–H598), intracellular domain of the human prolactin receptor (domain or fragment, UniProt P16471 260-622)
chain: GYSMVTCIFPPVPGPKIKGFDAHLLEKGKSEELLSALGCQDFPPTSDYEDLLVEYLEVDDSEDQHLMSVHSKEHPSQGMKPTYLDPDTDSGRGSCDSPSLLSEKCEEPQANPSTFYDPEVIEKPENPETTHTWDPQCISMEGKIPYFHAGGSKCSTWPLPQPSQHNPRSSYHNITDVCELAVGPAGAPATLLNEAGKDALKSSQTIKSREEGKATQQREVESFHSETDQDTPWLLPQEKTPFGSAKPLDYVEIHKVNKDGALSLLPKQRENSGKPKKPGTPENNKEYAKVSGVMDNNILVLVPDPHAKNVACFEESAKEAPPSLEQNQAEKALANFTATSSKCRLQLGGLDYLDPACFTHSFH
For the molecule B1, the binding entry is “no binding (tested: 400 μM)”.
